# The supplement of paper PMC4635364
# Where a name gives a salt, the structure may show the parent alone. This is one part of the list. This data set is noisy: repeats of one test often differ as much as different tests do.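 Cells: ReNCell VM human fetal ventral-midbrain neural progenitors, differentiated mitogen-free. Blinded raters compared doublecortin-stained (early neurons) or tyrosine hydroxylase-stained (dopaminergic neurons) images with untreated wells, where 0 means no change. After repeats and both raters were averaged, compounds scoring 2 or above became hits for retesting.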
# Assays:
# [1] = test system: ReNCell VM; assay: neuronal differentiation score (DCX+ cell fraction vs untreated, manual image score) (score (-3 to 3)); higher = more neuronal differentiation; details: 2 uM, 2 weeks
# [2] = test system: ReNCell VM; assay: dopaminergic neuron differentiation score (TH+ cell fraction vs untreated, manual image score) (score (0 to 3)); higher = more TH+ dopaminergic neuron differentiation; details: 2 uM, 4 weeks, BDNF 10 ng/ml + GDNF 10 ng/ml
smiles,measurement,setting,value
C[C@]12CC[C@H]3[C@@H](CC[C@]4(O)C[C@@H](O)CC[C@]34C=O)[C@@]1(O)CC[C@@H]2C1=CC(=O)OC1 [Strophanthidin],neuronal differentiation score,[1]; library: Phytochemical,inactive: 0
same,dopaminergic neuron differentiation score,[2]; library: Phytochemical,inactive: 0
"CCCN1CCc2cc(O)cc3c2[C@H]1Cc1ccc(O)c(O)c1-3 [R(-)-2,10,11-Trihydroxy-N-propylnoraporphine hydrobromide]",neuronal differentiation score,[1]; library: LOPAC,inactive: 0
same,dopaminergic neuron differentiation score,[2]; library: LOPAC,inactive: 0
CC(=O)[C@H]1CC[C@H]2[C@@H]3CC[C@H]4C[C@H](O)CC[C@]4(C)[C@H]3CC[C@]12C [5alpha-Pregnan-3alpha-ol-20-one],neuronal differentiation score,[1]; library: LOPAC,inactive: 0
same,dopaminergic neuron differentiation score,[2]; library: LOPAC,inactive: 0
CC1(C)C2CC(=O)[C@]3(C)C(CC[C@@]4(C)[C@H](c5ccoc5)OC(=O)C5OC543)[C@@]2(C)[C@@H](O)C[C@H]1O (stereo partly specified),neuronal differentiation score,[1]; library: Spectrum,inactive: 0
same,dopaminergic neuron differentiation score,[2]; library: Spectrum,inactive: 0
CC(C)C[C@H]1C(=O)N2CCC[C@H]2[C@]2(O)O[C@](NC(=O)[C@@H]3C=C4c5cccc6[nH]c(Br)c(c56)C[C@H]4N(C)C3)(C(C)C)C(=O)N12 [Bromocriptine mesylate],neuronal differentiation score,[1]; library: Tocriscreen,inactive: 0
same,dopaminergic neuron differentiation score,[2]; library: Tocriscreen,inactive: 0
CCCC(C)C1(CC)C(=O)NC(=S)NC1=O (stereo unspecified),neuronal differentiation score,[1]; library: Spectrum,inactive: 0
same,dopaminergic neuron differentiation score,[2]; library: Spectrum,inactive: 0
NCCc1ccc(O)cc1 [Tyramin hydrochloride],neuronal differentiation score,[1]; library: Phytochemical,inactive: 0
same,dopaminergic neuron differentiation score,[2]; library: Phytochemical,inactive: 0
CC(C)C[C@H]1C(=O)N2CCC[C@H]2[C@]2(O)O[C@](NC(=O)[C@@H]3C=C4c5cccc6[nH]c(Br)c(c56)C[C@H]4N(C)C3)(C(C)C)C(=O)N12,neuronal differentiation score,[1]; library: Spectrum,inactive: 0
same,dopaminergic neuron differentiation score,[2]; library: Spectrum,inactive: 0
CC(C)Oc1cccnc1N(C)C1CCN(Cc2ccc(I)cc2)CC1 [RBI 257 maleate salt],neuronal differentiation score,[1]; library: LOPAC,inactive: 0
same,dopaminergic neuron differentiation score,[2]; library: LOPAC,inactive: 0
O=C1C=C2C=C[C@@H]3C[C@@]2(O1)[C@H]1CCCCN31,neuronal differentiation score,[1]; library: Spectrum,inactive: 0
same,dopaminergic neuron differentiation score,[2]; library: Spectrum,inactive: 0
CC(=O)c1c(O)c(C)c(O)c(Cc2c(O)c3c(c(C(=O)/C=C/c4ccccc4)c2O)OC(C)(C)C=C3)c1O [Rottlerin],neuronal differentiation score,[1]; library: LOPAC,inactive: 0
same,dopaminergic neuron differentiation score,[2]; library: LOPAC,inactive: 0
CN1CCN(C(=O)OC2c3nccnc3C(=O)N2c2ccc(Cl)cn2)CC1 (stereo unspecified) [Zopiclone],neuronal differentiation score,[1]; library: Prestwick,inactive: 0
same,dopaminergic neuron differentiation score,[2]; library: Prestwick,inactive: 0
NC(Cc1cc(O)c(O)cc1O)C(=O)O (racemic) [6-Hydroxy-DL-DOPA],neuronal differentiation score,[1]; library: LOPAC,inactive: 0
same,dopaminergic neuron differentiation score,[2]; library: LOPAC,inactive: 0
COc1ccc(C(CN(C)C)C2(O)CCCCC2)cc1 (stereo unspecified) [Venlafaxine],neuronal differentiation score,[1]; library: Prestwick,inactive: 0
same,dopaminergic neuron differentiation score,[2]; library: Prestwick,inactive: 0
O=C(CCCN1CCC2(CC1)C(=O)N(Cc1cccc(F)c1)CN2c1ccccc1)c1ccc(F)cc1 [3'-Fluorobenzylspiperone maleate],neuronal differentiation score,[1]; library: Tocriscreen,inactive: 0
same,dopaminergic neuron differentiation score,[2]; library: Tocriscreen,inactive: 0
COC(=O)C1=CCCN(C)C1,neuronal differentiation score,[1]; library: Spectrum,inactive: 0
same,dopaminergic neuron differentiation score,[2]; library: Spectrum,inactive: 0
CN(C)C(=O)Oc1cccc([N+](C)(C)C)c1,neuronal differentiation score,[1]; library: Spectrum,inactive: 0
same,dopaminergic neuron differentiation score,[2]; library: Spectrum,inactive: 1
COc1ccc2c(c1OC)C(=O)O[C@@H]2[C@H]1c2cc3c(cc2CCN1C)OCO3 [Hydrastine],neuronal differentiation score,[1]; library: Phytochemical,inactive: 0
same,dopaminergic neuron differentiation score,[2]; library: Phytochemical,inactive: 0
CCCCCCCCC(=O)NCc1ccc(O)c(OC)c1,neuronal differentiation score,[1]; library: Spectrum,inactive: 0
same,dopaminergic neuron differentiation score,[2]; library: Spectrum,inactive: 0
NC(=O)C[S@@+]([O-])C(c1ccccc1)c1ccccc1,neuronal differentiation score,[1]; library: Spectrum,inactive: -1
same,dopaminergic neuron differentiation score,[2]; library: Spectrum,inactive: 0
CN1CCN(c2ccc3ccccc3n2)CC1 [N-Methylquipazine dimaleate],neuronal differentiation score,[1]; library: Tocriscreen,inactive: 0
same,dopaminergic neuron differentiation score,[2]; library: Tocriscreen,inactive: 0
CC(C)(C#N)O[C@@H]1O[C@H](CO)[C@@H](O)[C@H](O)[C@H]1O,neuronal differentiation score,[1]; library: Spectrum,inactive: 0
same,dopaminergic neuron differentiation score,[2]; library: Spectrum,inactive: 0
Cc1cccc(C)c1NC1=NCCCS1 [Xylazine],neuronal differentiation score,[1]; library: Prestwick,inactive: 0
same,dopaminergic neuron differentiation score,[2]; library: Prestwick,inactive: 0

# As a short view, part of the list above:
smiles,measurement,setting,value
CC1(C)C2CC(=O)[C@]3(C)C(CC[C@@]4(C)[C@H](c5ccoc5)OC(=O)C5OC543)[C@@]2(C)[C@@H](O)C[C@H]1O (stereo partly specified),dopaminergic neuron differentiation score,[2]; library: Spectrum,inactive: 0
CC(C)C[C@H]1C(=O)N2CCC[C@H]2[C@]2(O)O[C@](NC(=O)[C@@H]3C=C4c5cccc6[nH]c(Br)c(c56)C[C@H]4N(C)C3)(C(C)C)C(=O)N12 [Bromocriptine mesylate],neuronal differentiation score,[1]; library: Tocriscreen,inactive: 0
